Among the data in paper doi:10.1101/2020.02.20.958934 are binding values, retold here.

One experiment concerns the target T1, PEBP1-1d4 (UniProt P70296).
T1 sequence: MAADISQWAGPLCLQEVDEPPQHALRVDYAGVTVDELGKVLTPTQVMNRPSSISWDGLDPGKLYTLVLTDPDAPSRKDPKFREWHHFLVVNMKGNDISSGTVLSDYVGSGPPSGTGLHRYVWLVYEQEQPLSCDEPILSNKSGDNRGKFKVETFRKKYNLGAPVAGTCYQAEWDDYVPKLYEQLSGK
Kind of experiment: co-IP.

The next experiment addresses T2, DCF1-his-myc (UniProt Q9QY73).
T2 sequence: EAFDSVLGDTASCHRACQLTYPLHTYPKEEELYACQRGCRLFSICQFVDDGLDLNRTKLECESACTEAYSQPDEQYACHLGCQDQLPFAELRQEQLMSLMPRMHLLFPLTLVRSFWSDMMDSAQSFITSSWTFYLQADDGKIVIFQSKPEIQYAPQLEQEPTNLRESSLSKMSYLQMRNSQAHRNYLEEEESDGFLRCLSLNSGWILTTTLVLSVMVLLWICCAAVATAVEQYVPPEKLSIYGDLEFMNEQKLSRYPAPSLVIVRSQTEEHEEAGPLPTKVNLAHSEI
Kind of experiment: co-IP.

Results are given in words; binding and its absence hold for the method and conditions named. In cells and extracts the contact can be indirect. Some entries that bind do so weakly or less than the wild type. For some assays here: Tags and fused reporters may be left off the sequences shown.

Consider RAF1 (from UniProt P04049 1-648), for which the binding entry in the experiment with PEBP1-1d4 and with DCF1-his-myc was “binds” each time.
